Measured values reported in patent US20220378825A1.
No constants are given. Whether binding was seen depends on the method and setting. Some entries that bind do so weakly or less than the wild type.

The chains behind the UniProt entries cited, without tags or fusion partners. Residues count along the entry.
UniProt P13747, residues 22-358: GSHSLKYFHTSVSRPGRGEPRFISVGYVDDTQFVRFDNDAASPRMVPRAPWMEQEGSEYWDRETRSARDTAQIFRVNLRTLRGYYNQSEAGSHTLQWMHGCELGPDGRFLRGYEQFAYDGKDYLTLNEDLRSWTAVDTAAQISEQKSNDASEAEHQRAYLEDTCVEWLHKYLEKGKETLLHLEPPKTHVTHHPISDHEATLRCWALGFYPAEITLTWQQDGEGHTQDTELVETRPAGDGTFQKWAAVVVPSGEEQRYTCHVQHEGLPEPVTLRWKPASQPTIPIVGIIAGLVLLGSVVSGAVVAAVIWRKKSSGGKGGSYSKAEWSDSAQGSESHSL

Target: Human leukocyte antigen (HLA) system E; HLA class I histocompatibility antigen, alpha chain E (HLA-E) (human) (UniProt P13747)
Assay: peptide pulsing of dendritic cells, then PFA fixation; no direct binding read-out printed

## QMRPVSRVL [human heat shock protein 60 signal peptide (hHsp60sp)]
  binding: binds
